Data taken from PubChem BioAssay AID493014 (National Center for Advancing Translational Sciences (NCATS), 2011).
The list shows a part of the results. The main result of the screen is listed elsewhere. These columns were measured beside it and carry no call. Most of these compounds were active or inconclusive in the main read-out, so they are no random draw. Words in brackets tell the shape of the fitted curve; partial curves, single points and poor fits give uncertain potencies.

Assay: qHTS Assay to Find Inhibitors of Chronic Active B-Cell Receptor Signaling
Conditions: ABC-DLBCL IkBa-CBG/CBR reporter, luminescence ratio (green luciferase fused to IkBa over red control in TMD8 lymphoma cells), 4 h
In short: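 TMD8 ABC-DLBCL cells carrying doxycycline-inducible green luciferase fused to IkappaBalpha plus unfused red luciferase were exposed to compounds (up to 46 uM) for 4 hrs at 37C. Activity came from the overlap-corrected green/red luminescence ratio.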

[1] = measured here: CBR red luminescence, cell number

Row | Compound | AC50 [1] | AC50 (measured here: IkBa-CBG green luminescence)
1 | NC(=S)N/N=C/c1c(O)c(Br)cc2oc3c(c12)CCCC3 | 0.501 µM [falling, partial curve, poor fit] | –
2 | O=C(/C=C/c1ccc(S(=O)(=O)N2CCOCC2)cc1)Nc1cc(F)ccc1F | 5.17 µM [falling, full curve] | –
3 | COc1cccc(OC)c1OCCCSc1nc(C)cc(=O)[nH]1 | 18.4 µM [falling, single point] | –
4 | O=C(Cn1ccn(-c2ccc(F)c(Cl)c2)c(=O)c1=O)NCCc1ccccc1 | 1.64 µM [falling, full curve] | –
5 | COc1ccsc1C(=O)NCCN1CCOCC1 | 0.708 µM [falling, full curve, poor fit] | –
6 | CC(C)c1ccccc1NC(=O)COC(=O)c1cc([N+](=O)[O-])ccc1N1CCOCC1 | 5.17 µM [rising, partial curve, poor fit] | –
7 | COc1ccc(NS(=O)(=O)c2c(C)cc(C)cc2C)cc1 | 3.66 µM [falling, full curve, poor fit] | –
8 | CSc1nc(SCCO)c2sc3nc(-c4ccco4)c4c(c3c2n1)CC(C)(C)OC4 | 35.5 µM [falling, partial curve, poor fit] | –
9 | CCOc1ccccc1/C=N/Nc1nc2c(N)ncnc2n1[C@H]1O[C@@H](CO)[C@H](O)[C@@H]1O | 5.01 µM [rising, full curve] | 8.91 µM [falling, partial curve]
10 | Cc1ccc(C)c(OCC(=O)Nc2ccc(C(=O)O)cc2NC(=O)COc2cc(C)ccc2C)c1 | 11.2 µM [falling, partial curve] | –
11 | COc1ccc(S(=O)(=O)N(C)CC(=O)N2CCCCC2)cc1Cl | 23.1 µM [rising, partial curve, poor fit] | –
12 | CC(C)(C)NC(=S)NC(=O)C12CCC3CC(CC(C3)C1)C2 | 28.2 µM [rising, single point] | –
13 | O=C1OC(OC(=O)c2ccccc2Br)C(N2CCOCC2)=C1Cl (stereo not given) | 20.6 µM [falling, single point] | –
14 | COc1ccccc1-c1nn(Cc2ccccc2)cc1/C=C/C(=O)O | 0.0891 µM [rising, full curve, poor fit] | –
15 | CS(=O)(=O)N(CC(=O)NCCC1=CCCCC1)C1CCCCC1 | 0.0651 µM [rising, full curve, poor fit] | –
16 | COc1cc(-c2nc(-c3ccc(NC(=O)c4ccc5c(c4)OCO5)cc3)no2)cc(OC)c1OC | 7.31 µM [falling, partial curve, poor fit] | –
17 | C=C1c2ccccc2NC(=O)N1c1ccc(C)cc1 | 10.3 µM [falling, partial curve, poor fit] | –
18 | COc1cc(OC)cc(C(=O)NNC(=O)CN2C(=O)NC3(CCCC3)C2=O)c1 | 2.31 µM [rising, partial curve, poor fit] | –
19 | Cc1ccc(NC2=NC(c3ccc(C)cc3)n3c(nc(C)cc3=O)N2)cc1 (stereo not given) | 5.62 µM [rising, partial curve, poor fit] | –
20 | Cc1ccc(-c2cc3c(N=O)c4ccccc4c-3n[nH]2)cc1 | 2 µM [falling, partial curve, poor fit] | –

Row | Compound | AC50 [1] | AC50 (measured here: IkBa-CBG green luminescence)
21 | CCCC1=Nc2cc(C(=O)NCCN3CCOCC3)ccc2Sc2ccccc21 | 8.91 µM [falling, partial curve, poor fit] | –
22 | c1ccc(-c2cc3c(NCC4COc5ccccc5O4)ncnc3s2)cc1 (stereo not given) | 29.1 µM [falling, single point] | –
23 | O=C(O)CCc1ccc(-c2ccccc2)n1-c1ccc(C(=O)O)cc1 | 28.2 µM [falling, single point] | –
24 | COc1cc(OC)c2c(-c3ccccc3)cc(=O)oc2c1C(CC(=O)N1CCOCC1)c1ccc(N(C)C)cc1 (stereo not given) | 2.82 µM [falling, partial curve] | –
25 | COc1ccc(S(=O)(=O)N/N=C(/C)c2cccc(NC(=O)c3ccccc3Cl)c2)cc1 | 10 µM [falling, partial curve, poor fit] | –
26 | N#Cc1ccccc1Cn1cc(/C=N/Nc2ccc([N+](=O)[O-])cn2)c2ccccc21 | 5.62 µM [rising, partial curve, poor fit] | –
27 | COc1cc2ccccc2cc1C(=O)N(CCN(C)C)c1nc2c(OC)ccc(OC)c2s1 | 15.8 µM [falling, partial curve, poor fit] | –
28 | CCOC(=O)C1=C(C)NC(=O)NC1c1ccc(OCC(=O)OC)c(OC)c1 (stereo not given) | 25.1 µM [rising, single point] | –
29 | OCCn1c(SCCOc2ccccc2)nc2ccccc21 | 11.6 µM [falling, partial curve, poor fit] | –
30 | COc1ccc(-c2ccc(CCC(=O)O)n2NC(=O)c2ccc(C(C)(C)C)cc2)cc1 | 11.2 µM [falling, single point] | –
31 | CCCCc1ccc(N2C(=O)[C@@H]3C(CC(N)=O)NC4(C(=O)Nc5ccc(F)cc54)[C@@H]3C2=O)cc1 (stereo not given in full) | 29.1 µM [falling, single point] | –
32 | O=C1CN(C(=O)COC(=O)Cc2ccsc2)c2ccccc2N1 | 7.31 µM [rising, partial curve, poor fit] | –
33 | CC(C)CSC1=NSC2=NC(=O)/C(=C\c3coc4ccccc4c3=O)C(=N)N12 | 12.6 µM [falling, single point] | –
34 | Cc1csc(SCC(=O)Nc2sccc2C(N)=O)n1 | 12.6 µM [falling, partial curve, poor fit] | –
35 | CCOC(=O)c1cnc(SCc2nc(N)nc(Nc3ccccc3)n2)nc1N | 9.2 µM [rising, partial curve] | –
36 | Cn1c(=O)[nH]c(=O)c2c1nc(Br)n2C/C=N/NC(=O)c1ccccc1 | 12.6 µM [falling, partial curve] | –
37 | Fc1cc(Br)ccc1Nc1nc2ccccc2n2nnnc12 | 10.3 µM [falling, partial curve] | –
38 | COc1ccc(C(=O)n2nc(-c3ccc(C)cc3)nc2N)cc1OC | 0.0058 µM [falling, full curve, poor fit] | –
39 | N#C/C(=C\c1c(Cl)cccc1Cl)c1nc2ccccc2[nH]1 | 12.6 µM [falling, partial curve, poor fit] | –

Copied from above, compounds 38–39
Row | Compound | AC50 [1] | AC50 (measured here: IkBa-CBG green luminescence)
38 | COc1ccc(C(=O)n2nc(-c3ccc(C)cc3)nc2N)cc1OC | 0.0058 µM [falling, full curve, poor fit] | –
39 | N#C/C(=C\c1c(Cl)cccc1Cl)c1nc2ccccc2[nH]1 | 12.6 µM [falling, partial curve, poor fit] | –
